# Experimental data published in paper PMC9681113.
# T1: GFP-tagged MAB21L1 Arg51Leu (human) (UniProt Q13394)
# T1 sequence: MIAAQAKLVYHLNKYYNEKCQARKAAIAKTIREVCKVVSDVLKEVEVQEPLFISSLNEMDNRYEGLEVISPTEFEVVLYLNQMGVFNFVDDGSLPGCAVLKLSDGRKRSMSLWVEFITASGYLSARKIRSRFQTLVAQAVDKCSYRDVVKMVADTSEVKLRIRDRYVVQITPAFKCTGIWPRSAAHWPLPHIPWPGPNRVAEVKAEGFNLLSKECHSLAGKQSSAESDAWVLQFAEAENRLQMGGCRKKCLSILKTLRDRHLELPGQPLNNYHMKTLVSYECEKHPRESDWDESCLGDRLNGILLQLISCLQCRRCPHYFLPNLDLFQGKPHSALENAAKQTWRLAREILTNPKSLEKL
# T2: GFP-tagged MAB21L1 Arg51Gln (human) (UniProt Q13394)
# T2 sequence: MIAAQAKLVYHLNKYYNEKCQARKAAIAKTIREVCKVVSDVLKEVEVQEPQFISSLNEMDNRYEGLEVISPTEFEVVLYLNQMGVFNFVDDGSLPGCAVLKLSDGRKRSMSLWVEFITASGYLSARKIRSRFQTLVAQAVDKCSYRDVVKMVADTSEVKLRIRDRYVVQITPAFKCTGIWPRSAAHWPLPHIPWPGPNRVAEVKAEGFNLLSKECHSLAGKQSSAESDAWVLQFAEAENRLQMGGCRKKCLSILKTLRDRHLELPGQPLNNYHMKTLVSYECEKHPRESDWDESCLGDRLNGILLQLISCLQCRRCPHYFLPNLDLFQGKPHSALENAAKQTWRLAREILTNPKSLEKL
# T3: GFP-tagged wild-type MAB21L1 (human) (UniProt Q13394)
# T3 sequence: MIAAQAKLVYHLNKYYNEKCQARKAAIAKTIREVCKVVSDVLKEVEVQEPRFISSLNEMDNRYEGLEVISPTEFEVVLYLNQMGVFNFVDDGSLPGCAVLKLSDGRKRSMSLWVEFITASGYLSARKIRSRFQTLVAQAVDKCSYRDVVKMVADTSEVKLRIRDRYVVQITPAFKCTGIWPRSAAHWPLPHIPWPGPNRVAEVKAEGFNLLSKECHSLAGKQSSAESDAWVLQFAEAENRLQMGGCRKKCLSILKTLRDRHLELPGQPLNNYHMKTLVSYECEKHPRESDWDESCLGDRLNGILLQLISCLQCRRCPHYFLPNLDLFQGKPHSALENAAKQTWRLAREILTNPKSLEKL
# How the values were obtained:
# Test in all cases: affinity purification with mass spectrometry; GFP pulldown with GFP Tag Immunomagnetic Beads from lysates of HEK-293 Flp-In T-REx cells expressing EGFP, EGFP-MAB21L1 or mutant EGFP-MAB21L1 after 12 hrs of 1 μg/ml tetracycline; three biological replicates; MaxQuant
# [1] = target: T1, GFP-tagged MAB21L1 Arg51Leu (human)
# [2] = target: T2, GFP-tagged MAB21L1 Arg51Gln (human)
# [3] = target: T3, GFP-tagged wild-type MAB21L1 (human)
binding [1],binding [2],binding [3],Binder
binds,binds,binds,"ERAL1 (protein, UniProt O75616 44-437) VSCVAGSAFSGPRLASASRSNGQGSALDHFLGFSQPDSSVTPCVPAVSMNRDEQDVLLVHHPDMPENSRVLRVVLLGAPNAGKSTLSNQLLGRKVFPVSRKVHTTRCQALGVITEKETQVILLDTPGIISPGKQKRHHLELSLLEDPWKSMESADLVVVLVDVSDKWTRNQLSPQLLRCLTKYSQIPSVLVMNKVDCLKQKSVLLELTAALTEGVVNGKKLKMRQAFHSHPGTHCPSPAVKDPNTQSVGNPQRIGWPHFKEIFMLSALSQEDVKTLKQYLLTQAQPGPWEYHSAVLTSQTPEEICANIIREKLLEHLPQEVPYNVQQKTAVWEEGPGGELVIQQKLLVPKESYVKLLIGPKGHVISQIAQEAGHDLMDIFLCDVDIRLSVKLLK"
binds,binds,binds,"NPM3 (protein, UniProt O75607 1-178) MAAGTAAALAFLSQESRTRAGGVGGLRVPAPVTMDSFFFGCELSGHTRSFTFKVEEEDDAEHVLALTMLCLTEGAKDECNVVEVVARNHDHQEIAVPVANLKLSCQPMLSLDDFQLQPPVTFRLKSGSGPVRITGRHQIVTMSNDVSEEESEEEEEDSDEEEVELCPILPAKKQGGRP"
binds,binds,binds,"RBMX2 (protein, UniProt Q9Y388 1-322) MNPLTKVKLINELNEREVQLGVADKVSWHSEYKDSAWIFLGGLPYELTEGDIICVFSQYGEIVNINLVRDKKTGKSKGFCFLCYEDQRSTILAVDNFNGIKIKGRTIRVDHVSNYRAPKDSEEIDDVTRQLQEKGCGARTPSPSLSESSEDEKPTKKHKKDKKEKKKKKKEKEKADREVQAEQPSSSSPRRKTVKEKDDTGPKKHSSKNSERAQKSEPREGQKLPKSRTAYSGGAEDLERELKKEKPKHEHKSSSRREAREEKTRIRDRGRSSDAHSSWYNGRSEGRSYRSRSRSRDKSHRHKRARRSRERESSNPSDRWRH"
binds,binds,binds,"NUSAP1 (protein, UniProt Q9BXS6 1-441) MIIPSLEELDSLKYSDLQNLAKSLGLRANLRATKLLKALKGYIKHEARKGNENQDESQTSASSCDETEIQISNQEEAERQPLGHVTKTRRRCKTVRVDPDSQQNHSEIKISNPTEFQNHEKQESQDLRATAKVPSPPDEHQEAENAVSSGNRDSKVPSEGKKSLYTDESSKPGKNKRTAITTPNFKKLHEAHFKEMESIDQYIERKKKHFEEHNSMNELKQQPINKGGVRTPVPPRGRLSVASTPISQRRSQGRSCGPASQSTLGLKGSLKRSAISAAKTGVRFSAATKDNEHKRSLTKTPARKSAHVTVSGGTPKGEAVLGTHKLKTITGNSAAVITPFKLTTEATQTPVSNKKPVFDLKASLSRPLNYEPHKGKLKPWGQSKENNYLNQHVNRINFYKKTYKQPHLQTKEEQRKKREQERKEKKAKVLGMRRGLILAED"
binds,binds,no binding,"LRRFIP1 (protein, UniProt Q32MZ4 1-808) MTSPAAAQSREIDCLSPEAQKLAEARLAAKRAARAEAREIRMKELERQQKEEDSERYSRRSRRNTSASDEDERMSVGSRGSLRVEERPEKDFTEKGSRNMPGLSAATLASLGGTSSRRGSGDTSISIDTEASIREIKELNELKDQIQDVEGKYMQGLKEMKDSLAEVEEKYKKAMVSNAQLDNEKTNFMYQVDTLKDMLLELEEQLAESRRQYEEKNKEFEREKHAHSILQFQFAEVKEALKQREEMLEKHGIILNSEIATNGETSDTLNNVGYQGPTKMTKEELNALKSTGDGTLGRASEVEVKNEIVANVGKREILHNTEKEQHTEDTVKDCVDIEVFPAGENTEDQKSSEDTAPFLGTLAGATYEEQVQSQILESSSLPENTVQVESNEVMGAPDDRTRTPLEPSNCWSDLDGGNHTENVGEAAVTQVEEQAGTVASCPLGHSDDTVYHDDKCMVEVPQELETSTGHSLEKEFTNQEAAEPKEVPAHSTEVGRDHNEEEGEETGLRDEKPIKTEVPGSPAGTEGNCQEATGPSTVDTQNEPLDMKEPDEEKSDQQGEALDSSQKKTKNKKKKNKKKKSPVPVETLKDVKKELTYQNTDLSEIKEEEQVKSTDRKSAVEAQNEVTENPKQKIAAESSENVDCPENPKIKLDGKLDQEGDDVQTAAEEVLADGDTLDFEDDTVQSSGPRAGGEELDEGVAKDNAKIDGATQSSPAEPKSEDADRCTLPEHESPSQDISDACEAESTERCEMSEHPSQTVRKALDSNSLENDDLSAPGREPGHFNPESREDTRGGNEKGKSKEDCTMS"
binds,binds,binds,"FASTKD5 (protein, UniProt Q7L8L6 28-764) VSYWNVSSTQHGGQDPPEHISLCHSAKKVKNICSTFSSRRILTTSSAHPGLEFSKTSSSKASTLQLGSPRATGVDEEDVEVFDSFENMRVFLQLRPEYRVHSYNASETSQLLSVSEGELILHKVRVNQNNLQAQVIVDYLCKLSSLPAEQHPVLLGSTSFALLCQLSVKKIQLFDTQDLINVLKAFVILGIPHSHSMLDVYETKCCHQVWEMNMDQLLLVADLWRYLGRKVPRFLNIFSSYLNLHWKDLSLSQLVHLIYVIGENRQVSQDLMQKLESLILKYIDLINLEEVGTICLGFFKSSTNLSEFVMRKIGDLACANIQHLSSRSLVNIVKMFRFTHVDHINFMKQIGEIAPQRIPSLGVQGVMHLTLYCSALRFLNEGVMNAVAASLPPRVAHCRSKDVAKILWSFGTLNYKPPNAEEFYSSLISEIHRKMPEFNQYPEHLPTCLLGLAFLEYFPVELIDFALSPGFVRLAQERTKFDLLKELYTLDGTVGIECPDYRGNRLSTHLQQEGSELLWYLAEKDMNSKPEFLETVFLLETMLGGPQYVKHHMILPHTRSSDLEVQLDVNLKPLPFNREATPAENVAKLRLEHVGVSLTDDLMNKLLKGKARGHFQGKTESEPGQQPMELENKAAVPLGGFLCNVADKSGAMEMAGLCPAACMQTPRMKLAVQFTNRNQYCYGSRDLLGLHNMKRRQLARLGYRVVELSYWEWLPLLKRTRLEKLAFLHEKVFTSAL"
binds,binds,binds,"METTL16 (protein, UniProt Q86W50 1-562) MALSKSMHARNRYKDKPPDFAYLASKYPDFKQHVQINLNGRVSLNFKDPEAVRALTCTLLREDFGLSIDIPLERLIPTVPLRLNYIHWVEDLIGHQDSDKSTLRRGIDIGTGASCIYPLLGATLNGWYFLATEVDDMCFNYAKKNVEQNNLSDLIKVVKVPQKTLLMDALKEESEIIYDFCMCNPPFFANQLEAKGVNSRNPRRPPPSSVNTGGITEIMAEGGELEFVKRIIHDSLQLKKRLRWYSCMLGKKCSLAPLKEELRIQGVPKVTYTEFCQGRTMRWALAWSFYDDVTVPSPPSKRRKLEKPRKPITFVVLASVMKELSLKASPLRSETAEGIVVVTTWIEKILTDLKVQHKRVPCGKEEVSLFLTAIENSWIHLRRKKRERVRQLREVPRAPEDVIQALEEKKPTPKESGNSQELARGPQERTPCGPALREGEAAAVEGPCPSQESLSQEENPEPTEDERSEEKGGVEVLESCQGSSNGAQDQEASEQFGSPVAERGKRLPGVAGQYLFKCLINVKKEVDDALVEMHWVEGQNRDLMNQLCTYIRNQIFRLVAVN"
binds,binds,binds,"PDXDC1 (protein, UniProt Q6P996 1-788) MDASLEKIADPTLAEMGKNLKEAVKMLEDSQRRTEEENGKKLISGDIPGPLQGSGQDMVSILQLVQNLMHGDEDEEPQSPRIQNIGEQGHMALLGHSLGAYISTLDKEKLRKLTTRILSDTTLWLCRIFRYENGCAYFHEEEREGLAKICRLAIHSRYEDFVVDGFNVLYNKKPVIYLSAAARPGLGQYLCNQLGLPFPCLCRVPCNTVFGSQHQMDVAFLEKLIKDDIERGRLPLLLVANAGTAAVGHTDKIGRLKELCEQYGIWLHVEGVNLATLALGYVSSSVLAAAKCDSMTMTPGPWLGLPAVPAVTLYKHDDPALTLVAGLTSNKPTDKLRALPLWLSLQYLGLDGFVERIKHACQLSQRLQESLKKVNYIKILVEDELSSPVVVFRFFQELPGSDPVFKAVPVPNMTPSGVGRERHSCDALNRWLGEQLKQLVPASGLTVMDLEAEGTCLRFSPLMTAAVLGTRGEDVDQLVACIESKLPVLCCTLQLREEFKQEVEATAGLLYVDDPNWSGIGVVRYEHANDDKSSLKSDPEGENIHAGLLKKLNELESDLTFKIGPEYKSMKSCLYVGMASDNVDAAELVETIAATAREIEENSRLLENMTEVVRKGIQEAQVELQKASEERLLEEGVLRQIPVVGSVLNWFSPVQALQKGRTFNLTAGSLESTEPIYVYKAQGAGVTLPPTPSGSRTKQRLPGQKPFKRSLRGSDALSETSSVSHIEDLEKVERLSSGPEQITLEASSTEGHPGAPSPQHTDQTEAFQKGVPHPEDDHSQVEGPESLR"

# These are yes or no findings as the source states them, for the method shown. In cells and extracts the contact can be indirect. A yes stands for co-enrichment or nearness to the bait. Other partners may have been found. For part of these data: No binding means not detected with the bait. Tags and fused reporters may be left off the sequences shown.
